Assay results: paper PMC5725467, “Elongated Hypocotyl 5-Homolog (HYH) Negatively Regulates Expression of the Ambient Temperature-Responsive MicroRNA Gene MIR169”
For at least one entry, the source does not settle the construct or the ends of the probe. Negatives hold for the conditions tested. Protein sequences can lack the tags named with them.

Target: T1, HYH.2-His (HYH splice isoform 2) (UniProt Q8W191)
T1 sequence (looked up, limits assumed): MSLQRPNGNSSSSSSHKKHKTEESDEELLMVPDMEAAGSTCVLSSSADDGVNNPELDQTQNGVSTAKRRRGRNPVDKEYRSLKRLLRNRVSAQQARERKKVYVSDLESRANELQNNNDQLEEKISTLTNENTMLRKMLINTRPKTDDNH
Experiment: EMSA
Details: 100 ng protein; EMSA: LightShift Chemiluminescent EMSA Kit (manufacturer's instructions), 100 ng HYH.2-His, room temperature 30 min, 8% native polyacrylamide gel; recombinant protein; protein details: His (pET28a+); label: 5'-biotin; letters put together from the description

TGTACGGCACATACCCCTTGACCTAC (double strand) [miR169a mutant G-box-like (mG)]
binding result: no binding
